Measured values published in paper PMC9892047.
Where a chain is given by its changes, count along the chain named. Results are given in words; binding and its absence hold for the method and conditions named. In cells and extracts the contact can be indirect. For some assays here: A result given as binding can be weak or reduced; the word gives no strength. For some assays here: Where a sequence is shown, tags or fusion partners need not be part of it.

Amino acid sequences for entries named in this document (tags omitted). A change or cut given only in a name is not applied to a line headed by its entry.
UniProt D4A109: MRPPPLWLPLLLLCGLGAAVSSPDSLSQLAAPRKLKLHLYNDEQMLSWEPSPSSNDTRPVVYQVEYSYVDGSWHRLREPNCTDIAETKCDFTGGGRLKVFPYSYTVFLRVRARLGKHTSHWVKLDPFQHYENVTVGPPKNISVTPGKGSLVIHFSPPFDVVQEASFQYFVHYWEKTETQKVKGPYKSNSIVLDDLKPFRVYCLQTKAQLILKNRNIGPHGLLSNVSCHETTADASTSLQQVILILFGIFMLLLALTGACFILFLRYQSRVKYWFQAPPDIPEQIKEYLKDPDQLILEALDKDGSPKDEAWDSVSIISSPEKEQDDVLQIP

Tests used:
[1] = target: T1, cystatin SN (CST1), recombinant human protein (human) (UniProt P01037); assay: co-IP; recombinant proteins CST1, IFNGR1, IFNGR2; precipitated with anti-CST1 antibody (Rat IgG as negative control); western blot with anti-CST1, anti-IFNGR1 or anti-IFNGR2; both purified
T1 sequence: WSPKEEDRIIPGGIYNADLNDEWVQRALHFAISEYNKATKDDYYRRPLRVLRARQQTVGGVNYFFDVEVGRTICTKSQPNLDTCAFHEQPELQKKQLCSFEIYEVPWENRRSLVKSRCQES

[2] = target: T2, CST1 Mut 1 (deletion of the motif aa 76-80), His-tagged (human) (UniProt P01037); assay: co-IP; wild-type or His-tagged mutant CST1 proteins with IFNGR1; western blot with anti-His; precipitating antibody not told; both purified
T2 sequence: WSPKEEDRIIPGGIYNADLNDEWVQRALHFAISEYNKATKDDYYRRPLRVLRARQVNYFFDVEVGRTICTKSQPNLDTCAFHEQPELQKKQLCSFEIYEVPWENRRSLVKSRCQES

[3] = target: T3, CST1 Mut 2 (disulfide bond aa 94,104 mutated from cysteine to glycine), His-tagged (human) (UniProt P01037); assay: as above
T3 sequence: T1 sequence with C74G, C84G

[4] = target: T1, cystatin SN (CST1), recombinant human protein (human); assay: as above
[5] = target: T4, CST1 Mut 3 (disulfide bond aa 118,138 mutated from cysteine to glycine), His-tagged (human) (UniProt P01037); assay: as above
T4 sequence: T1 sequence with C98G, C118G

[6] = target: T1, cystatin SN (CST1), recombinant human protein (human); assay: co-IP; purified His-tagged extracellular segments with or without recombinant CST1; precipitated with anti-CST1 antibody; western blot with anti-His; both purified

binding [1] | binding [6] | Substance | other results
binds | – | recombinant IFNGR1 protein (receptor) | binding [2]: no binding; binding [3]: no binding; binding [4]: binds; binding [5]: no binding
– | binds | IFNGR1-EC, His-tagged IFNGR1 extracellular segment (aa: 1-241) (rat) (domain or fragment) | –
binds | – | recombinant IFNGR2 protein (receptor) | –
– | binds | IFNGR2-EC, His-tagged IFNGR2 extracellular segment (aa: 1-240) (from UniProt D4A109) (domain or fragment) | –
